The target of this experiment is 3X FLAG-RUNX2 (UniProt Q13950). The experiment in a line: co-IP; 293T cells transfected with 3X FLAG-RUNX2 and/or HA-GSK-3β, RIPA lysate; precipitated with anti-FLAG M2 affinity gel and blotted for HA (Fig. 4C), and in reverse with the HA Tag IP/Co-IP kit and blotted for FLAG, IgG as negative control (Fig. 4D).

The chains behind the UniProt entries cited, without tags or fusion partners.
UniProt Q13950: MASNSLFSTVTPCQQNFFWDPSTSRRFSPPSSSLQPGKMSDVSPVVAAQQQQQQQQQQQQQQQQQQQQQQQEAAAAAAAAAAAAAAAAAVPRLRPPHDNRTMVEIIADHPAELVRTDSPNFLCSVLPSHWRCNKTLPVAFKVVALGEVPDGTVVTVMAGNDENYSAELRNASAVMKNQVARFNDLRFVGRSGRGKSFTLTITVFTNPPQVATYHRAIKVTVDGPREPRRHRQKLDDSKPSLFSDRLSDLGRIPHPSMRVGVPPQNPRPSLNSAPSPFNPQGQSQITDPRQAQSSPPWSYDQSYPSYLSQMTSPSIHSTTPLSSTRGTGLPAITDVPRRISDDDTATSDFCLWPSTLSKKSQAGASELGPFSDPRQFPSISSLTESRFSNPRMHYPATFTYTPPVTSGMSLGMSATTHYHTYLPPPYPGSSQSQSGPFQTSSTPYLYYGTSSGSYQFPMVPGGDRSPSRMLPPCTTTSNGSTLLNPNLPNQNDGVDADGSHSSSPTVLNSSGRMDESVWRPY
UniProt P49841: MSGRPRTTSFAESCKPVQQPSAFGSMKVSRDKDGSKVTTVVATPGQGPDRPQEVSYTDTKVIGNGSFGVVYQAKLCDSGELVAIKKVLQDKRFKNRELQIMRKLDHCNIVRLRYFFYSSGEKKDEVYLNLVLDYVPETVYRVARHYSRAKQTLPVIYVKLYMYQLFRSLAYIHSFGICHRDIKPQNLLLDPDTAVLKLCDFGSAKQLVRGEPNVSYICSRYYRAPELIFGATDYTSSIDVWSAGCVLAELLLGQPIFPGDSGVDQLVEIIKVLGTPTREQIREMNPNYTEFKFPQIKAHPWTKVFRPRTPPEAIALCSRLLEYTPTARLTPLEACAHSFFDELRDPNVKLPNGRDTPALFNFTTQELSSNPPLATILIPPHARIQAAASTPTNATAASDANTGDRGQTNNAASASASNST

These are yes or no findings as the source states them, for the method shown. Binding seen in cells or lysates may run through a third protein. Some entries that bind do so weakly or less than the wild type.

Regarding “HA-GSK-3β (from UniProt P49841 1-420) (enzyme)”, the binding result is recorded as “binds”.

(Values after PMC1950686.)
